Test results reported in the supplement of paper PMC8728848.
This is one part of the list.

Columns and labels:
Assay in all cases: glycan array binding signal (z-score within array); higher = stronger binding
Settings in all cases: glycan notation: IUPAC condensed, linker removed
[1] = molecular target: GlcNAc(a1-6)Gal(b1-4)GlcNAc
Outline: (§1)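 Negative Z-scores can be read as non-binding. The Z-score is calculated within each array and then averaged across arrays of one protein sequence at different concentrations or buffers and across linkers. Arrays, 3228 in all, were curated from the Consortium for Functional Glycomics database and kept only where the protein sequence was available.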

[2] = molecular target: GlcNAc(b1-2)Gal(b1-3)GalNAc
Outline: as §1

[3] = molecular target: GlcNAc(b1-2)Man(a1-3)[GlcNAc(b1-2)Man(a1-6)]Man(b1-4)GlcNAc(b1-4)GlcNAc
Outline: as §1

[4] = molecular target: GlcNAc(b1-2)Man(a1-3)[GlcNAc(b1-2)Man(a1-6)]Man(b1-4)GlcNAc(b1-4)[Fuc(a1-6)]GlcNAc
Outline: as §1

[5] = molecular target: GlcNAc(b1-2)Man(a1-3)[GlcNAc(b1-4)][GlcNAc(b1-2)Man(a1-6)]Man(b1-4)GlcNAc(b1-4)GlcNAc
Outline: as §1

[6] = molecular target: GlcNAc(b1-2)Man(a1-3)[GlcNAc(b1-4)][GlcNAc(b1-2)Man(a1-6)]Man(b1-4)GlcNAc(b1-4)[Fuc(a1-6)]GlcNAc
Outline: as §1

[7] = molecular target: GlcNAc(b1-2)[GlcNAc(b1-4)]Man(a1-3)[GlcNAc(b1-2)Man(a1-6)]Man(b1-4)GlcNAc(b1-4)GlcNAc
Outline: as §1

[8] = molecular target: GlcNAc(b1-2)[GlcNAc(b1-4)]Man(a1-3)[GlcNAc(b1-4)][GlcNAc(b1-2)Man(a1-6)]Man(b1-4)GlcNAc(b1-4)GlcNAc
Outline: as §1

[9] = molecular target: GlcNAc(b1-2)[GlcNAc(b1-4)]Man(a1-3)[GlcNAc(b1-4)][GlcNAc(b1-2)[GlcNAc(b1-6)]Man(a1-6)]Man(b1-4)GlcNAc(b1-4)GlcNAc
Outline: as §1

[10] = molecular target: GlcNAc(b1-2)[GlcNAc(b1-4)]Man(a1-3)[GlcNAc(b1-4)][GlcNAc(b1-2)[GlcNAc(b1-6)]Man(a1-6)]Man(b1-4)GlcNAc(b1-4)[Fuc(a1-6)]GlcNAc
Outline: as §1

[11] = molecular target: GlcNAc(b1-2)[GlcNAc(b1-6)]Man(a1-6)[GlcNAc(b1-2)Man(a1-3)]Man(b1-4)GlcNAc(b1-4)GlcNAc
Outline: as §1

[12] = molecular target: GlcNAc(b1-2)[GlcNAc(b1-6)]Man(a1-6)[GlcNAc(b1-2)Man(a1-3)]Man(b1-4)GlcNAc(b1-4)[Fuc(a1-6)]GlcNAc
Outline: as §1

[13] = molecular target: GlcNAc(b1-2)[GlcNAc(b1-6)]Man(a1-6)[GlcNAc(b1-4)][GlcNAc(b1-2)Man(a1-3)]Man(b1-4)GlcNAc(b1-4)GlcNAc
Outline: as §1

GlcNAc(b1-3)Fuc = molecular target: GlcNAc(b1-3)Fuc
Outline: as §1

GlcNAc(b1-3)Gal = molecular target: GlcNAc(b1-3)Gal
Outline: as §1

[14] = molecular target: GlcNAc(b1-3)Gal(b1-3)GalNAc
Outline: as §1

GlcNAc(b1-3)Gal(b1-4)Glc = molecular target: GlcNAc(b1-3)Gal(b1-4)Glc
Outline: as §1

[15] = molecular target: GlcNAc(b1-3)Gal(b1-4)GlcNAc
Outline: as §1

[16] = molecular target: GlcNAc(b1-3)Gal(b1-4)GlcNAc(b1-2)Man(a1-3)[GlcNAc(b1-3)Gal(b1-4)GlcNAc(b1-2)Man(a1-6)]Man(b1-4)GlcNAc(b1-4)GlcNAc
Outline: as §1

[17] = molecular target: GlcNAc(b1-3)Gal(b1-4)GlcNAc(b1-2)Man(a1-3)[GlcNAc(b1-3)Gal(b1-4)GlcNAc(b1-2)Man(a1-6)]Man(b1-4)GlcNAc(b1-4)[Fuc(a1-6)]GlcNAc
Outline: as §1

[18] = molecular target: GlcNAc(b1-3)Gal(b1-4)GlcNAc(b1-2)[GlcNAc(b1-3)Gal(b1-4)GlcNAc(b1-6)]Man(a1-6)[GlcNAc(b1-3)Gal(b1-4)GlcNAc(b1-2)Man(a1-3)]Man(b1-4)GlcNAc(b1-4)GlcNAc
Outline: as §1

[19] = molecular target: GlcNAc(b1-3)Gal(b1-4)GlcNAc(b1-3)Gal(b1-4)GlcNAc
Outline: as §1

[20] = molecular target: GlcNAc(b1-3)Gal(b1-4)GlcNAc(b1-3)Gal(b1-4)GlcNAc(b1-2)Man(a1-3)[GlcNAc(b1-3)Gal(b1-4)GlcNAc(b1-3)Gal(b1-4)GlcNAc(b1-2)Man(a1-6)]Man(b1-4)GlcNAc(b1-4)GlcNAc
Outline: as §1

[21] = molecular target: GlcNAc(b1-3)Gal(b1-4)GlcNAc(b1-3)Gal(b1-4)GlcNAc(b1-2)Man(a1-3)[GlcNAc(b1-3)Gal(b1-4)GlcNAc(b1-3)Gal(b1-4)GlcNAc(b1-2)Man(a1-6)]Man(b1-4)GlcNAc(b1-4)[Fuc(a1-6)]GlcNAc
Outline: as §1

[22] = molecular target: GlcNAc(b1-3)Gal(b1-4)GlcNAc(b1-3)Gal(b1-4)GlcNAc(b1-2)[GlcNAc(b1-3)Gal(b1-4)GlcNAc(b1-3)Gal(b1-4)GlcNAc(b1-6)]Man(a1-6)[GlcNAc(b1-3)Gal(b1-4)GlcNAc(b1-3)Gal(b1-4)GlcNAc(b1-2)Man(a1-3)]Man(b1-4)GlcNAc(b1-4)[Fuc(a1-6)]GlcNAc
Outline: as §1

[23] = molecular target: GlcNAc(b1-3)Gal(b1-4)GlcNAc(b1-3)Gal(b1-4)GlcNAc(b1-3)Gal(b1-4)GlcNAc(b1-2)Man(a1-3)[GlcNAc(b1-3)Gal(b1-4)GlcNAc(b1-3)Gal(b1-4)GlcNAc(b1-3)Gal(b1-4)GlcNAc(b1-2)Man(a1-6)]Man(b1-4)GlcNAc(b1-4)GlcNAc
Outline: as §1

[24] = molecular target: GlcNAc(b1-3)Gal(b1-4)GlcNAc(b1-3)Gal(b1-4)GlcNAc(b1-3)Gal(b1-4)GlcNAc(b1-2)Man(a1-3)[GlcNAc(b1-3)Gal(b1-4)GlcNAc(b1-3)Gal(b1-4)GlcNAc(b1-3)Gal(b1-4)GlcNAc(b1-2)Man(a1-6)]Man(b1-4)GlcNAc(b1-4)[Fuc(a1-6)]GlcNAc
Outline: as §1

[25] = molecular target: GlcNAc(b1-3)Gal(b1-4)GlcNAc(b1-3)Gal(b1-4)GlcNAc(b1-3)Gal(b1-4)GlcNAc(b1-2)[GlcNAc(b1-3)Gal(b1-4)GlcNAc(b1-3)Gal(b1-4)GlcNAc(b1-3)Gal(b1-4)GlcNAc(b1-6)]Man(a1-6)[GlcNAc(b1-3)Gal(b1-4)GlcNAc(b1-3)Gal(b1-4)GlcNAc(b1-3)Gal(b1-4)GlcNAc(b1-2)Man(a1-3)]Man(b1-4)GlcNAc(b1-4)[Fuc(a1-6)]GlcNAc
Outline: as §1

[26] = molecular target: GlcNAc(b1-3)Gal(b1-4)GlcNAc(b1-3)Gal(b1-4)GlcNAc(b1-3)Gal(b1-4)GlcNAc(b1-3)Gal(b1-4)GlcNAc(b1-2)Man(a1-3)[GlcNAc(b1-3)Gal(b1-4)GlcNAc(b1-3)Gal(b1-4)GlcNAc(b1-3)Gal(b1-4)GlcNAc(b1-3)Gal(b1-4)GlcNAc(b1-2)Man(a1-6)]Man(b1-4)GlcNAc(b1-4)GlcNAc
Outline: as §1

[27] = molecular target: GlcNAc(b1-3)Gal(b1-4)GlcNAc(b1-3)Gal(b1-4)GlcNAc(b1-3)Gal(b1-4)GlcNAc(b1-3)Gal(b1-4)GlcNAc(b1-2)Man(a1-3)[GlcNAc(b1-3)Gal(b1-4)GlcNAc(b1-3)Gal(b1-4)GlcNAc(b1-3)Gal(b1-4)GlcNAc(b1-3)Gal(b1-4)GlcNAc(b1-2)Man(a1-6)]Man(b1-4)GlcNAc(b1-4)[Fuc(a1-6)]GlcNAc
Outline: as §1

[28] = molecular target: GlcNAc(b1-3)Gal(b1-4)GlcNAc(b1-3)Gal(b1-4)GlcNAc(b1-3)Gal(b1-4)GlcNAc(b1-3)Gal(b1-4)GlcNAc(b1-2)[GlcNAc(b1-3)Gal(b1-4)GlcNAc(b1-3)Gal(b1-4)GlcNAc(b1-3)Gal(b1-4)GlcNAc(b1-3)Gal(b1-4)GlcNAc(b1-6)]Man(a1-6)[GlcNAc(b1-3)Gal(b1-4)GlcNAc(b1-3)Gal(b1-4)GlcNAc(b1-3)Gal(b1-4)GlcNAc(b1-3)Gal(b1-4)GlcNAc(b1-2)Man(a1-3)]Man(b1-4)GlcNAc(b1-4)[Fuc(a1-6)]GlcNAc
Outline: as §1

[29] = molecular target: GlcNAc(b1-3)Gal(b1-4)GlcNAc(b1-3)Gal(b1-4)GlcNAc(b1-3)GalNAc
Outline: as §1

[30] = molecular target: GlcNAc(b1-3)Gal(b1-4)GlcNAc(b1-3)GalNAc
Outline: as §1

[31] = molecular target: GlcNAc(b1-3)Gal(b1-4)GlcNAc(b1-3)[GlcNAc(b1-3)Gal(b1-4)GlcNAc(b1-3)]GalNAc
Outline: as §1

[32] = molecular target: GlcNAc(b1-3)Gal(b1-4)GlcNAc(b1-6)[Gal(b1-3)]GalNAc
Outline: as §1

[33] = molecular target: GlcNAc(b1-3)Gal(b1-4)GlcNAc(b1-6)[GlcNAc(b1-3)Gal(b1-3)]GalNAc
Outline: as §1

[34] = molecular target: GlcNAc(b1-3)Gal(b1-4)GlcNAc(b1-6)[GlcNAc(b1-3)]Gal(b1-4)GlcNAc
Outline: as §1

GlcNAc(b1-3)GalNAc = molecular target: GlcNAc(b1-3)GalNAc
Outline: as §1

GlcNAc(b1-3)Man = molecular target: GlcNAc(b1-3)Man
Outline: as §1

[35] = molecular target: GlcNAc(b1-3)[GlcNAc(b1-4)][GlcNAc(b1-6)]GlcNAc
Outline: as §1

[36] = molecular target: GlcNAc(b1-3)[GlcNAc(b1-6)]Gal(b1-4)GlcNAc
Outline: as §1

[37] = molecular target: GlcNAc(b1-3)[GlcNAc(b1-6)]GalNAc
Outline: as §1

[38] = molecular target: GlcNAc(b1-4)Gal(b1-4)GlcNAc
Outline: as §1

GlcNAc(b1-4)GlcNAc = molecular target: GlcNAc(b1-4)GlcNAc
Outline: as §1

[39] = molecular target: GlcNAc(b1-4)GlcNAc(b1-4)GlcNAc
Outline: as §1

B1: XTP3-B-MRH2 (Homo sapiens), Q96DZ1 (protein)
chain: EFLSGSYCFRGGVGWWKYEFCYGKHVHQYHEDKDSGKTSVVVGTWNQEEHIEWAKKNTARAYHLQDDGTQTVRMVSHFYGNGDICDITDKPRQVTVKLKCKESDSPHAVTVYMLEPHSCQYILGVESPVICKILDTA
- glycan array binding signal (z-score) [1]: 0.424
- glycan array binding signal (z-score) [2]: 0.355
- glycan array binding signal (z-score) [3]: -0.57
- glycan array binding signal (z-score) [4]: -0.201
- glycan array binding signal (z-score) [5]: -0.128
- glycan array binding signal (z-score) [6]: -0.728
- glycan array binding signal (z-score) [7]: -1.12
- glycan array binding signal (z-score) [8]: -0.712
- glycan array binding signal (z-score) [9]: 0.018
- glycan array binding signal (z-score) [10]: 0.752
- glycan array binding signal (z-score) [11]: 1.7
- glycan array binding signal (z-score) [12]: -0.374
- glycan array binding signal (z-score) [13]: -0.561
- glycan array binding signal (z-score) (GlcNAc(b1-3)Fuc): 1.89
- glycan array binding signal (z-score) (GlcNAc(b1-3)Gal): -0.273
- glycan array binding signal (z-score) [14]: 0.142
- glycan array binding signal (z-score) (GlcNAc(b1-3)Gal(b1-4)Glc): 0.292
- glycan array binding signal (z-score) [15]: -0.888
- glycan array binding signal (z-score) [16]: -1.22
- glycan array binding signal (z-score) [17]: -0.246
- glycan array binding signal (z-score) [18]: 0.276
- glycan array binding signal (z-score) [19]: 1.09
- glycan array binding signal (z-score) [20]: 0.894
- glycan array binding signal (z-score) [21]: -0.842
- glycan array binding signal (z-score) [22]: 0.985
- glycan array binding signal (z-score) [23]: -1.38
- glycan array binding signal (z-score) [24]: -0.575
- glycan array binding signal (z-score) [25]: 0.022
- glycan array binding signal (z-score) [26]: -0.742
- glycan array binding signal (z-score) [27]: -0.307
- glycan array binding signal (z-score) [28]: 1.22
- glycan array binding signal (z-score) [29]: -0.328
- glycan array binding signal (z-score) [30]: -0.741
- glycan array binding signal (z-score) [31]: 0.613
- glycan array binding signal (z-score) [32]: -0.591
- glycan array binding signal (z-score) [33]: 1.89
- glycan array binding signal (z-score) [34]: -0.516
- glycan array binding signal (z-score) (GlcNAc(b1-3)GalNAc): 0.262
- glycan array binding signal (z-score) (GlcNAc(b1-3)Man): -1.08
- glycan array binding signal (z-score) [35]: -0.72
- glycan array binding signal (z-score) [36]: -0.392
- glycan array binding signal (z-score) [37]: 0.188
- glycan array binding signal (z-score) [38]: 0.065
- glycan array binding signal (z-score) (GlcNAc(b1-4)GlcNAc): -0.456
- glycan array binding signal (z-score) [39]: -1.04
